This assay concerns the target GFP-ASXL3-ΔBBM (human) (UniProt Q9C0F0). The assay can be described thus: co-IP; HEK293T cells 24 h after transfection with GFP, GFP-ASXL1-3, GFP-ASXL3-FL or GFP-ASXL3-ΔBBM; IP from whole cell lysates with antibodies against the GFP epitope, immunoblot of endogenous proteins; Triton lysis buffer (50 mM Tris pH 8.0, 150 mM NaCl, 0.5% Triton X100, benzonase). Background: A western blot detects proteins with antibodies after separation by electrophoresis.

Sequences of proteins named here, by UniProt entry; tags and fusion partners are left off. A change or cut given only in a name is not applied to a line headed by its entry.
UniProt Q9C0F0: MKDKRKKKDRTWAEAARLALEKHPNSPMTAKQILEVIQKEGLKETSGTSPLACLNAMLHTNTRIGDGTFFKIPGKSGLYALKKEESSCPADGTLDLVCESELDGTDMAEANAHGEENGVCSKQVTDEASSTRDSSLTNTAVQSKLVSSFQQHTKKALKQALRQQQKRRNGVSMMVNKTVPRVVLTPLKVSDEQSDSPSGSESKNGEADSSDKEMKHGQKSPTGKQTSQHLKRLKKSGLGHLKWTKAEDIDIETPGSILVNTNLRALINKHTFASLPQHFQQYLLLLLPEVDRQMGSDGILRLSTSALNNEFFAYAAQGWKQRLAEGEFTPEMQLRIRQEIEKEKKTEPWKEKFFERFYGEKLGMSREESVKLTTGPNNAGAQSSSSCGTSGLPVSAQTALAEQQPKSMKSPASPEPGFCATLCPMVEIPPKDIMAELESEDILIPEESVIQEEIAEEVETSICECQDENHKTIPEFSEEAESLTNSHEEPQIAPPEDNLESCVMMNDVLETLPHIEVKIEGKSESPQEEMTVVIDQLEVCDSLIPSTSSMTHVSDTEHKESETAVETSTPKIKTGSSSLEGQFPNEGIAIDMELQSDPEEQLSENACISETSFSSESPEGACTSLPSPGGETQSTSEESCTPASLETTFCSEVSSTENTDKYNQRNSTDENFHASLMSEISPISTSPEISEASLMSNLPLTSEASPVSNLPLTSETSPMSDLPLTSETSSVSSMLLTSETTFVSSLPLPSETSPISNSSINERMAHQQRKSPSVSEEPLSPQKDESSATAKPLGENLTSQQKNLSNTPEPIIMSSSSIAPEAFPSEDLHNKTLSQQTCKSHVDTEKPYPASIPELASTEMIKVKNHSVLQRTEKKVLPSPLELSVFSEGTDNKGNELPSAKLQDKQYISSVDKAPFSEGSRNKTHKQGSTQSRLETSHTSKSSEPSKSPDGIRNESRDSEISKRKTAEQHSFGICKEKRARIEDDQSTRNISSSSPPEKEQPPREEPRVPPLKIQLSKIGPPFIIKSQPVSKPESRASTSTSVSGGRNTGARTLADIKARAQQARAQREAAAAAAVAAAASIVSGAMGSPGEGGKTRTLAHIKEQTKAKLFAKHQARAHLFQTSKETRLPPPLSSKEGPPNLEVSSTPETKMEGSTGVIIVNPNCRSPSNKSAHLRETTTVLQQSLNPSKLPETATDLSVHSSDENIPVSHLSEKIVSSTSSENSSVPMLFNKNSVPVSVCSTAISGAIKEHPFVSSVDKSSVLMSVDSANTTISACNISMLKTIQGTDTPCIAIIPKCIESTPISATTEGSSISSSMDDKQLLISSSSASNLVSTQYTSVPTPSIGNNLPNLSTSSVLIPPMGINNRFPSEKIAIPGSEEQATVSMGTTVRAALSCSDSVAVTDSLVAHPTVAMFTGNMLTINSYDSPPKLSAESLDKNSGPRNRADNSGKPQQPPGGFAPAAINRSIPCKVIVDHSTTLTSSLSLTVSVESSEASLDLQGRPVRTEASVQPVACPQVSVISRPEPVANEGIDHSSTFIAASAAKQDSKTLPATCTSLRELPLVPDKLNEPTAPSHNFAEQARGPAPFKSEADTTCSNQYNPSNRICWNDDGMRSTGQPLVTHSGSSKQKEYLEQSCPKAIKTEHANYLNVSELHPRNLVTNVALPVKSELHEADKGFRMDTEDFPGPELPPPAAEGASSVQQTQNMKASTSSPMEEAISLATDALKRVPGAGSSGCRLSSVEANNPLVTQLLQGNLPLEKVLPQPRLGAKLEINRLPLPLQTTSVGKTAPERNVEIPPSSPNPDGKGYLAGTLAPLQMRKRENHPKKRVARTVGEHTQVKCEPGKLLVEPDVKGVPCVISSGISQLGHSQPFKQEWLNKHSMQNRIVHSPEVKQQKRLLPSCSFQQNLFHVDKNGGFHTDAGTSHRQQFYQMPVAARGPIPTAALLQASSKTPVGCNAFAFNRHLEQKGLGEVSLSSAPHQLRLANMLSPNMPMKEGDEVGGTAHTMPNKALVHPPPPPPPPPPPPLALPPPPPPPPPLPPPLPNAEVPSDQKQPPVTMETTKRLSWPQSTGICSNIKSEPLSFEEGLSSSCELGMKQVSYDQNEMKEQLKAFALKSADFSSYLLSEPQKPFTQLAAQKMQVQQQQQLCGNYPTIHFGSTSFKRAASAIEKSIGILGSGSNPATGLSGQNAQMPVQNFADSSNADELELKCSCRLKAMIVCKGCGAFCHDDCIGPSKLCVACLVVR
UniProt Q92560: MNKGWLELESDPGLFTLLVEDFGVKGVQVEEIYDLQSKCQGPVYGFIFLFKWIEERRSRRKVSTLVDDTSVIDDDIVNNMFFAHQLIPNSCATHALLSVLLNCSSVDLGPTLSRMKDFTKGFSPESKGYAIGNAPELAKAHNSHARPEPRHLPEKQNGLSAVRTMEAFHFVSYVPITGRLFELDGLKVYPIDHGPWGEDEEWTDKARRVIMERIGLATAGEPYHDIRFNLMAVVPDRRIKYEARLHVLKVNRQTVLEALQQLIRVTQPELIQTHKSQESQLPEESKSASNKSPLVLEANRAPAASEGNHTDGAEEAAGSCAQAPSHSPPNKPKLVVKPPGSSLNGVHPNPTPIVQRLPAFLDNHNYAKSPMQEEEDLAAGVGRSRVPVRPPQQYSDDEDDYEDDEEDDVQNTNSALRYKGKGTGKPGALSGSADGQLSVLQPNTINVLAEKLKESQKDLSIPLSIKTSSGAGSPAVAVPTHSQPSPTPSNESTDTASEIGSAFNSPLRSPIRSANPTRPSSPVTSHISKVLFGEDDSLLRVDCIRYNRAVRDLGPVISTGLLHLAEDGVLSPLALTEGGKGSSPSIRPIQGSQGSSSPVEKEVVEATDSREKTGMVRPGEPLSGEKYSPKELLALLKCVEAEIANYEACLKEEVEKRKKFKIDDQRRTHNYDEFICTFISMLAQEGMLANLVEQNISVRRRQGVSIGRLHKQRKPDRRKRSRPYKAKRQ

No constants are given. Whether binding was seen depends on the method and setting. Binding seen in cells or lysates may run through a third protein. A result given as binding can be weak or reduced; the word gives no strength.

For the substance “BRCA1-associated protein 1 (BAP1), endogenous in HEK293T cells (from UniProt Q92560 1-729) (enzyme)”, the binding entry is reported as “binds”.
